Source: article PMC3312915
No constants are given. Whether binding was seen depends on the method and setting. In cells and extracts the contact can be indirect. Binding calls can cover weak binding; strength is not graded here.

T1: ER degradation-enhancing, mannosidase-like protein 1 (EDEM1), endogenous (human (endogenous in HepG2.2.2.15)) (UniProt Q92611)
T1 sequence: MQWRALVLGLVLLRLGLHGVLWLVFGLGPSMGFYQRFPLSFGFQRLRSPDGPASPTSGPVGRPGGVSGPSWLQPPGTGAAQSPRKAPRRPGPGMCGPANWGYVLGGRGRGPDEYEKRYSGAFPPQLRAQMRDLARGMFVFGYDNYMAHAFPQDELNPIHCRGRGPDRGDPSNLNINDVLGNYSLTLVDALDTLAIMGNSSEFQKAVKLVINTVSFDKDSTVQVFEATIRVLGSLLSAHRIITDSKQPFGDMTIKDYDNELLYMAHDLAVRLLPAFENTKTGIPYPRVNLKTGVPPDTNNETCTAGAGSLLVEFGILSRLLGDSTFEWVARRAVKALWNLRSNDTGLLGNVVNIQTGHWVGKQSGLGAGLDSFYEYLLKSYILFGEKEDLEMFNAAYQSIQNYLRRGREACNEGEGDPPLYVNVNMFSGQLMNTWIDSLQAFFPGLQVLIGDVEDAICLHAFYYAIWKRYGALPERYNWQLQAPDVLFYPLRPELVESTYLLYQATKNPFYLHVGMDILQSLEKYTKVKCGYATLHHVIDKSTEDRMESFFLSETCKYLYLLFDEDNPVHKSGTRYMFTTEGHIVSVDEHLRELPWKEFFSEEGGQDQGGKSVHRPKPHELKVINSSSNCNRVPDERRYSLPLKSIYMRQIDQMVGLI


Key:
Experiment in all cases: co-IP; HepG2.2.2.15 cells pulse-labelled 30 min with 35S-Met/Cys, lysed in 2% CHAPS, 50 mM HEPES pH 7.5, 200 mM NaCl, 2 mM EDTA; immunoprecipitated with anti-EDEM1 or anti-S Abs overnight at 4°C, protein A-Sepharose; SDS-PAGE and autoradiography; controls HepG2 cells and beads only
[1] = molecular target: T1, ER degradation-enhancing, mannosidase-like protein 1 (EDEM1), endogenous (human (endogenous in HepG2.2.2.15))
[2] = molecular target: HBV small (S) envelope protein (Hepatitis B virus (genome integrated in HepG2.2.2.15))
[3] = molecular target: HBV large (L) envelope protein (Hepatitis B virus (genome integrated in HepG2.2.2.15))

Molecule	binding [1]	binding [2]	binding [3]
HBV small (S) envelope protein	binds		
HBV large (L) envelope protein	binds		
ER degradation-enhancing, mannosidase-like protein 1 (EDEM1), endogenous (protein, UniProt Q92611 1-657) MQWRALVLGLVLLRLGLHGVLWLVFGLGPSMGFYQRFPLSFGFQRLRSPDGPASPTSGPVGRPGGVSGPSWLQPPGTGAAQSPRKAPRRPGPGMCGPANWGYVLGGRGRGPDEYEKRYSGAFPPQLRAQMRDLARGMFVFGYDNYMAHAFPQDELNPIHCRGRGPDRGDPSNLNINDVLGNYSLTLVDALDTLAIMGNSSEFQKAVKLVINTVSFDKDSTVQVFEATIRVLGSLLSAHRIITDSKQPFGDMTIKDYDNELLYMAHDLAVRLLPAFENTKTGIPYPRVNLKTGVPPDTNNETCTAGAGSLLVEFGILSRLLGDSTFEWVARRAVKALWNLRSNDTGLLGNVVNIQTGHWVGKQSGLGAGLDSFYEYLLKSYILFGEKEDLEMFNAAYQSIQNYLRRGREACNEGEGDPPLYVNVNMFSGQLMNTWIDSLQAFFPGLQVLIGDVEDAICLHAFYYAIWKRYGALPERYNWQLQAPDVLFYPLRPELVESTYLLYQATKNPFYLHVGMDILQSLEKYTKVKCGYATLHHVIDKSTEDRMESFFLSETCKYLYLLFDEDNPVHKSGTRYMFTTEGHIVSVDEHLRELPWKEFFSEEGGQDQGGKSVHRPKPHELKVINSSSNCNRVPDERRYSLPLKSIYMRQIDQMVGLI		binds	binds
